# Patent US20140081011A1
# No constants are given. Whether binding was seen depends on the method and setting. Binding seen in cells or lysates may run through a third protein. Some binding calls cover weakened binding; strength is not graded here.
# Biological target: recombinant human 4-1BB Receptor/Fc Chimera (R&D Systems) (human) (UniProt Q07011+P01857)
# Test: co-immunoprecipitation; 4-1BB Receptor/Fc on Protein A magnetic beads, SDS-PAGE gel
substance,measurement,value
recombinant 4-1BB Ligand (R&D Systems) (from UniProt P41273 71-254),binding,binds
